We go through four compounds from patent publication US20230403873A1, “ORGANIC COMPOUND AND ORGANIC LIGHT-EMITTING DEVICE” (CANON KABUSHIKI KAISHA, priority 2022, published 2023).

A short description of series [1]: Evaluation of organic light-emitting device (vacuum-deposited, compound as guest in light-emitting layer), IVL measurement and continuous driving. To be noted: for EQE (external quantum efficiency): at 10 mA/cm^2, guest in EM33 host, ratio by weight 99:1; for LT80 (durability time when the luminance reached 80%): relative value, compound A defined as 1, continuous driving at 5 mA/cm^2.

Series [2] can be described thus: Evaluation of organic light-emitting devices (spin-coated light-emitting layer): EL spectrum compared with PL spectrum in toluene solution. To be noted: for Change in wavelength of first peak maximum in solution and device: EL spectrum of device vs PL spectrum of 10^-5 mol/L toluene solution; for Full width at half maximum: EL spectrum of device, guest in EM33 1:99.

Each structure is given as a SMILES string. Some results are limits rather than exact numbers.

For the compound `CC(C)(C)c1cc2ccc3cc4c(c5ccc(c1)c2c35)-c1ccc(-c2cc(-c3ccc5c(c3)C(C)(C)c3cc6ccc7cc(C(C)(C)C)cc8ccc(c3-5)c6c78)ncn2)cc1C4(C)C` [Compound (1)], in series [1], the “EQE (external quantum efficiency)” value worked out at 5.48% and the “LT80 (durability time when the luminance reached 80%)” value worked out at 1.3 h.
With `CC(C)(C)c1cc2ccc3cc4c(c5ccc(c1)c2c35)-c1ccc(-c2ccc3c(c2)C2(c5ccccc5-c5ccccc52)c2cc(-c5ccc6c(c5)C(C)(C)c5cc7ccc8cc(C(C)(C)C)cc9ccc(c5-6)c7c89)ccc2-3)cc1C4(C)C` [Compound (25)], in series [2], the “Change in wavelength of first peak maximum in solution and device” value is given as <1 nm; the “Full width at half maximum” value stood at 47 nm.
The like results for `CC(C)(C)c1cc2ccc3cc4c(c5ccc(c1)c2c35)-c1ccc(-c2ccc3c(c2)C2(c5ccccc5-3)c3ccccc3-c3ccc(-c5ccc6c(c5)C(C)(C)c5cc7ccc8cc(C(C)(C)C)cc9ccc(c5-6)c7c89)cc32)cc1C4(C)C` [Compound (29)] were, in that order, 6 nm and 75 nm.
Regarding `CC(C)(C)c1cc2ccc3cc4c(c5ccc(c1)c2c35)-c1ccc(-c2ccc(-c3ccc(-c5ccc6c(c5)C(C)(C)c5cc7ccc8cc(C(C)(C)C)cc9ccc(c5-6)c7c89)cc3)cc2)cc1C4(C)C` [Compound A], in series [1], the “EQE (external quantum efficiency)” value is recorded as 5.03% and the “LT80 (durability time when the luminance reached 80%)” value was 1 h. Further, in series [2], the “Change in wavelength of first peak maximum in solution and device” value was 48 nm; the “Full width at half maximum” value is given as 140 nm.
